Experimental data from PubChem BioAssay AID2685 (National Center for Advancing Translational Sciences (NCATS), 2010).
The other results are listed elsewhere or left out. Further columns of the screen follow, without active or inactive calls. Compounds called inactive in the main read-out are mostly missing here. The note in brackets gives the kind of curve behind each potency; many fits are weak.

Assay: qHTS Assay for Lipid Storage Modulators in Drosophila S3 Cells;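 for cell number change: cells counted by Cell Tracker Red CMTPX staining in the red channel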
Conditions: BODIPY lipid droplet fluorescence, 18-24 h; for cell number change: measured here: cell count max response, cells fed with added oleic acid
Outline: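 Drosophila S3 cells loaded with oleic acid (400 uM, as added) and compounds at several concentrations; lipid droplets imaged by 488-nm laser-scanning cytometry, 500–530 nm intensity and object ratio to cell channel. Percent activity normalized to 20 uM Triacsin C.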

[1] = measured here: lipid fluorescence (Fed channel) AC50, cells fed with added oleic acid
[2] = measured here: cell number channel AC50, cells fed with added oleic acid

Compound	cell number change	AC50 [1]	AC50 [2]
O=C(COC(=O)c1cc(S(=O)(=O)N2CCOCC2)ccc1F)Nc1ccc(Cl)cn1	-5.26%	7.31 µM [rising, partial curve, poor fit]	–
Cc1ccc(SCC(=O)NCc2ccc(F)cc2)cc1	-33%	–	2.06 µM [falling, single point]
COc1ccc(CCC(=O)OC(C)C(=O)c2ccc(C)cc2)cc1 (stereo unspecified)	127%	–	3.26 µM [rising, partial curve, poor fit]
CN1CCN(/C=C2\SC(=S)NC2=O)CC1	-12.6%	1.3 µM [falling, full curve, poor fit]	–
Fc1ccc(C2CCCN2Cc2nc(Cc3ccccc3)no2)cc1 (stereo unspecified)	15.6%	14.6 µM [rising, partial curve]	–
COc1ccc(/C(O)=C2/C(=O)C(=O)N(CCCC(=O)O)C2c2ccc(OC)c(OC)c2)cc1 (stereo unspecified)	-14.4%	–	–
OC[C@H]1OC(Nc2ccc(N=Nc3ccccc3)cc2)[C@@H](O)[C@@H](O)[C@@H]1O (stereo partly specified)	16.4%	0.326 µM [rising, full curve]	0.411 µM [rising, full curve]
CC(C(=O)N1CCCc2c1c(=O)oc1ccc(O)cc21)N1CCc2ccccc2C1 (stereo unspecified)	-8.48%	0.366 µM [falling, full curve]	–
CCOC(=O)C1=C(C)NC(=S)NC1c1ccc(C)s1 (stereo unspecified)	9.54%	–	–
CCCCCn1c(CN2CCN(C)CC2)nc2c1c(=O)n(C)c(=O)n2C	33.1%	7.31 µM [rising, partial curve, poor fit]	–
O=c1c(Cc2ccc(F)cc2)c(O)ccn1CCc1ccccn1	-39.3%	2 µM [falling, partial curve]	11.2 µM [falling, partial curve, poor fit]
O=C(NC1CC1)c1cc(-c2ccco2)nc2ccccc12	15.8%	6.51 µM [rising, partial curve, poor fit]	–
c1cncc(CNc2cccc(-c3nc4ccccc4[nH]3)c2)c1	–	0.146 µM [rising, full curve, poor fit]	–
CCOC(=O)c1ccc(NC(=O)c2ccc(C)c(S(=O)(=O)N3CCOCC3)c2)cc1	59.7%	1.46 µM [rising, full curve]	3.26 µM [rising, full curve, poor fit]
Cc1ccccc1OCC(=O)OCn1nnc2ccccc2c1=O	20.2%	0.461 µM [falling, single point]	0.411 µM [falling, single point]
CC1CCN(C(=O)C2CCN(C(=O)c3cc4sccc4n3Cc3ccc(F)cc3)CC2)CC1	-45%	11.6 µM [falling, partial curve]	32.6 µM [falling, single point]
COc1ccc(OC)c(NC(=S)N(CCc2c(C)[nH]c3ccccc23)Cc2cccs2)c1	9.04%	2.59 µM [rising, full curve]	–
O=C(Nc1ccc(C(=O)N2CCN(c3ccccn3)CC2)cc1)c1ccc(Br)o1	15.8%	29.1 µM [rising, single point]	–
CCN1/C(=C/c2ccc3cc(C)ccc3[n+]2CC)Sc2cc(C)ccc21	-51.6%	–	18.4 µM [falling, partial curve, poor fit]
CCn1c(CNC(=O)Cc2ccc(OC)cc2)nnc1SCC(=O)c1ccc(Br)cc1	–	1.46 µM [rising, partial curve]	1.64 µM [rising, partial curve]
O=C(Nc1ccccn1)c1ccc(Cl)c(S(=O)(=O)N2CCCC2)c1	32.9%	–	14.6 µM [rising, single point]

Quoted from the listing, two compounds:
Compound	cell number change	AC50 [1]	AC50 [2]
O=C(NC1CC1)c1cc(-c2ccco2)nc2ccccc12	15.8%	6.51 µM [rising, partial curve, poor fit]	–
c1cncc(CNc2cccc(-c3nc4ccccc4[nH]3)c2)c1	–	0.146 µM [rising, full curve, poor fit]	–

Going on with the list:

Compound	cell number change	AC50 [1]	AC50 [2]
CCn1c(CNc2cccc(Cl)c2)nnc1SCc1ccccc1	-14.4%	–	–
COCCn1c(C)cc2c(c1=O)C(c1ccco1)C(C#N)=C(N)O2 (stereo unspecified)	111%	16.4 µM [rising, partial curve]	8.2 µM [rising, partial curve]
O=C(NCC(c1cccs1)N1CCc2ccccc21)c1ccccc1 (stereo unspecified)	48.5%	–	9.2 µM [rising, partial curve]
CCCOC(=O)c1ccc(O)cc1	-8.04%	2.59 µM [falling, single point]	–
O=C(Nc1ccc2c(c1)nc1n2CCSC1)c1ccco1	-19.2%	0.259 µM [falling, full curve, poor fit]	0.13 µM [falling, full curve, poor fit]
C=CCn1c(CCNC(=O)c2cccs2)n[nH]c1=S	28.1%	–	–
COc1cc(CCC(=O)Nc2sccc2C#N)cc(OC)c1OC	24.4%	–	–
CC(C)C(=O)Nc1cccc(NC(=O)c2ccc(Cl)cc2Cl)c1	–	29.1 µM [rising, partial curve, poor fit]	–
Cc1ccccc1OCC(=O)O/N=C(\N)c1ccncc1	2.52%	–	–
COc1ccc(S(=O)(=O)N2CCOCC2)cc1NC(=O)CSc1n[nH]c(C(C)C)n1	–	6.51 µM [rising, single point]	–
CCOc1ccc(C(=O)NNC(=O)CCNC(=O)c2ccc(Br)cc2)cc1OC	9.65%	29.1 µM [rising, single point]	–
C/C=C/c1ccc(OCC(=O)Nc2ccncc2)c(OC)c1	-14.3%	29.1 µM [falling, single point]	–
CC(=O)Nc1ccc(SCC(=O)c2cc(C)n(CC(F)(F)F)c2C)cc1	105%	6.51 µM [falling, partial curve]	23.1 µM [rising, single point]
OC1CCCN(CC(O)COC(c2ccc(F)cc2)c2ccc(F)cc2)C1 (stereo unspecified)	–	–	2.31 µM [rising, partial curve]
CC(OC(=O)CCCN=C1NS(=O)(=O)c2ccccc21)C(=O)N(C)c1ccccc1 (stereo unspecified)	-4.38%	–	–
COc1ccc(S(=O)(=O)N2CCc3ccccc32)cc1C(=O)OCc1nnc(-c2ccccc2)o1	26.3%	9.2 µM [rising, partial curve]	–
CCc1ccc(N(CC(=O)NC2CCCC2)C(=O)CCC(=O)Nc2ccccn2)cc1	27%	–	–
CCOc1ccc(NC(=O)Cn2c(=O)n(CCCC(=O)NC3CCN(Cc4ccccc4)CC3)c(=O)c3ccccc32)cc1	-10.3%	29.1 µM [rising, single point]	–
CCN1CCN(C(=O)C2CC(=O)N(c3ccc(Cl)cc3)C2)CC1 (stereo unspecified)	24.8%	29.1 µM [rising, single point]	–
COc1cccc(CN2C(=O)C(C)Oc3ccccc32)c1 (stereo unspecified)	16.9%	0.0651 µM [rising, full curve, poor fit]	–
Cc1ccc(-c2nnn(CCOc3cccc(Br)c3)n2)cc1	-31.5%	–	7.31 µM [falling, partial curve, poor fit]

Some of these compounds in order of heavy-atom count, largest number first:
Compound	cell number change	AC50 [1]	AC50 [2]
CC1CCN(C(=O)C2CCN(C(=O)c3cc4sccc4n3Cc3ccc(F)cc3)CC2)CC1	-45%	11.6 µM [falling, partial curve]	32.6 µM [falling, single point]
CCc1ccc(N(CC(=O)NC2CCCC2)C(=O)CCC(=O)Nc2ccccn2)cc1	27%	–	–
CC(C(=O)N1CCCc2c1c(=O)oc1ccc(O)cc21)N1CCc2ccccc2C1 (stereo unspecified)	-8.48%	0.366 µM [falling, full curve]	–

(list continues)

Compound	cell number change	AC50 [1]	AC50 [2]
CC(C)N(Cc1nc(-c2ccccc2)no1)C(=O)c1ccc(Cl)cc1	-0.0918%	29.1 µM [rising, single point]	–
O=C(CCCC(=O)n1cnc2ccccc21)n1cnc2ccccc21	-6.47%	–	–
Cc1cccc(C)c1N=Cc1c(C(F)(F)F)[nH][nH]c1=O	-33.1%	16.4 µM [falling, single point]	–
Cc1cc(C)c(C(=O)COc2cccnc2[N+](=O)[O-])cc1C	-78.8%	29.1 µM [falling, single point]	20.6 µM [falling, single point]
Cc1cc(C(=O)CN2C(=O)NC3(CCCc4ccccc43)C2=O)c(C)n1Cc1cccs1 (stereo unspecified)	39.4%	0.411 µM [rising, full curve, poor fit]	32.6 µM [rising, single point]
CC(C)(C)C1CCC(C(=O)Nc2ccccc2)CC1 (stereo unspecified)	14.1%	2.31 µM [falling, partial curve]	–
Cc1ccc(-c2oc3ccccc3c(=O)c2O)cc1	31.4%	6.51 µM [falling, single point]	–
O=C(CSc1ncnc2nc[nH]c12)N1CCN(c2ccc(Cl)cc2)CC1	-32.7%	2.59 µM [falling, full curve]	2.91 µM [falling, full curve]
Cc1[nH]n(-c2ccccc2)c(=O)c1N=Nc1ccccc1C(=O)O	-26.9%	4.61 µM [falling, single point]	–
CC(OC(=O)c1ccccc1NCCO)C(=O)Nc1ccc(S(=O)(=O)N2CCOCC2)cc1 (stereo unspecified)	5.21%	0.00461 µM [rising, full curve, poor fit]	–
CCCOc1ccc(C(=O)NCCC(=O)NCCCC(=O)OCC)cc1	10%	–	–
COc1cccc(-n2ccnc2SCC(=O)NCc2ccccc2)c1	16.3%	0.651 µM [rising, partial curve, poor fit]	–
Oc1ccc(N2CCN(c3ncnc4sc(-c5ccccc5)cc34)CC2)cc1	-15.6%	–	–
O=C(c1cccn2c(=O)c3ccc(Cl)cc3nc12)N1CCN(Cc2ccc3c(c2)OCO3)CC1	35.5%	–	5.8 µM [rising, single point]
CC(C)C(=O)Nc1cccc(C(=O)Nc2ccc(S(=O)(=O)Nc3nccs3)cc2)c1	-7.66%	29.1 µM [falling, single point]	–
Cc1ccc(-c2cc(C(F)(F)F)nn2-c2ccc(S(N)(=O)=O)cc2)cc1	-12.4%	3.26 µM [falling, single point]	–
O=C(CN1CCN(S(=O)(=O)c2ccc(Cl)cc2)CC1)NCc1cccs1	63%	–	20.6 µM [rising, single point]
Cc1ccc(C)c(NC(=O)c2cc3ccccc3o2)c1	19.6%	–	–
CNc1nc2c3ccccc3n(C(C)=O)c2s1	-5.96%	–	–
